Test results reported in patent US20060111342A1, “Insecticidal tricyclic derivatives” (priority 2002, published 2006).
At least one structure is not confirmed: it was looked up by name or label, or the drawing left a doubt. Some compounds share one range, which may span the group rather than tell each member.

test system: cotton aphid (Aphis gossypii); experiment: Cotton aphid mortality on sprayed cotton plants, assessed after 24 hours (Table 2); format: in vivo; settings: rate of application 100 ppm
Procedure: The compounds of formula I useful in the present invention were tested for insecticidal activity by observing mortality in a population of cotton aphid (Aphis gossypii) on treated cotton plants caused by a test compound, when compared to like populations of cotton aphid on untreated plants. These tests were conducted in the following manner:
For each rate of application of test compound, two seven-to-ten days old cotton seedlings (Gossypium hirsutium) grown in 7.6 cm diameter pots were selected for the test. Each test plant was infested with about 120 adult cotton aphids by placing onto each test plant cuttings of leaves from cotton plants grown in a cotton aphid colony. Once infested, the test plants were maintained for up to about 12 hours to allow complete translocation of the aphids onto the test plant. A solution comprising 1000 part per million (ppm) of each test compound was prepared by dissolving 10 milligrams of the test compound in 1 mL of acetone. Each solution was then diluted with 9 mL of a solution of 0.03 mL of polyoxyethylene(10) isooctylphenyl ether in 100 mL of water. About 2.5 mL of solution of each test compound was needed to spray each replicate of test plant (5 mL total for each test compound). If needed, the solution of 1000 ppm of test compound was serially diluted with a solution of 10% acetone and 300 ppm of polyoxyethylene(10) isooctylphenyl ether in water to provide solutions of each test compound for lower rates of application, for example, 300 ppm, 100 ppm, 30 ppm, or 10 ppm. Each replicate of test plant was sprayed with the solutions of test compound until run-off on both the upper and lower surfaces of the leaves. All the test plants were sprayed using a DeVilbus Atomizer Model 152 (Sunrise Medical, Carlsbad, Calif.) at a pressure of about 0.63-0.74 kilogram per square centimeter from a distance of about 30.5 centimeters from the test plants. For comparison purposes, a solution of a standard, such as amitraz or demethylchlordimeform (DCDM), prepared in a manner analogous to that set forth above, as well as a solution of 10% acetone and 300 ppm of polyoxyethylene(10) isooctylphenyl ether in water containing no test compound were also sprayed onto test plants. Upon completion of spraying the solutions of test compound, the solution of standard, and the solution containing no test compound, the plants were allowed to dry. Upon completion of drying, the test plants were placed in a tray containing about 2.5 centimeters of water, where they were maintained in a growth chamber for 24 hours. After this time, each plant was assessed for percent mortality caused by the test compound when compared to the population of aphids that was infested onto the test plants prior to treatment with test compound. […] If there was 75% mortality or greater of the cotton aphid, a test compound was designated as being more insecticidally active (A).
The test compounds of formula I are identified by numbers that correspond to those in Table 1.

| Structure (SMILES) | Mortality of Cotton Aphid On Cotton Plants: More Than 75% Mortality (A) |
| --- | --- |
| CN1CCN(C2Cc3ccccc3Oc3ccc(Cl)cc32)CC1 (centres unmarked) [Compound 64] | X (More Than 75% Mortality (A)) |
| CN1CCN(C2Cc3ccccc3Oc3ccc(Br)cc32)CC1 (centres unmarked) [Compound 65] | X (More Than 75% Mortality (A)) |
| CN1CCN(C2Cc3ccccc3Oc3ccc(I)cc32)CC1 (centres unmarked) [Compound 67] | X (More Than 75% Mortality (A)) |
| C[N+]1([O-])CCN(C2Cc3ccccc3Oc3ccc(OC(F)(F)F)cc32)CC1 (centres unmarked) [Compound 72] | X (More Than 75% Mortality (A)) |
| CN1CCN(C2Cc3ccccc3Oc3cc(OC(F)(F)F)ccc32)CC1 (centres unmarked) [Compound 73] | X (More Than 75% Mortality (A)) |
| C[N+]1([O-])CCN(C2Cc3ccccc3Oc3cc(OC(F)(F)F)ccc32)CC1 (centres unmarked) [Compound 74] | X (More Than 75% Mortality (A)) |
| CN1CCN(C2Cc3ccccc3Oc3ccc(SC(F)(F)F)cc32)CC1 (centres unmarked) [Compound 75] | X (More Than 75% Mortality (A)) |
| CN1CCN(C2Cc3ccccc3Oc3ccc(S(=O)(=O)C(F)(F)F)cc32)CC1 (centres unmarked) [Compound 77] | X (More Than 75% Mortality (A)) |
| C=Cc1ccc2c(c1)C(N1CCN(C)CC1)Cc1ccccc1O2 (centres unmarked) [Compound 78] | X (More Than 75% Mortality (A)) |
| C#Cc1ccc2c(c1)C(N1CCN(C)CC1)Cc1ccccc1O2 (centres unmarked) [Compound 79] | X (More Than 75% Mortality (A)) |
| CN1CCN(C2Cc3ccccc3Oc3ccc(C#C[Si](C)(C)C)cc32)CC1 (centres unmarked) [Compound 80] | X (More Than 75% Mortality (A)) |
| CN1CCN(C2Cc3ccccc3Oc3ccc([N+](=O)[O-])cc32)CC1 (centres unmarked) [Compound 81] | X (More Than 75% Mortality (A)) |
| CN1CCN(C2Cc3ccccc3Oc3cc(Cl)c(Cl)cc32)CC1 (centres unmarked) [Compound 82] | X (More Than 75% Mortality (A)) |
| CN1CCN(C2Cc3ccccc3Oc3c(Cl)cc(Cl)cc32)CC1 (centres unmarked) [Compound 83] | X (More Than 75% Mortality (A)) |
| CN1CCN(C2Cc3ccccc3Oc3cc(F)c(Cl)cc32)CC1 (centres unmarked) [Compound 84] | X (More Than 75% Mortality (A)) |
| CN1CCN(C2Cc3ccccc3Oc3c(F)cc(Cl)cc32)CC1 (centres unmarked) [Compound 85] | X (More Than 75% Mortality (A)) |
| CN1CCN(C2Cc3ccccc3Oc3c(F)cc(Br)cc32)CC1 (centres unmarked) [Compound 88] | X (More Than 75% Mortality (A)) |
| Cc1cc(Br)cc2c1Oc1ccccc1CC2N1CCN(C)CC1 (centres unmarked) [Compound 89] | X (More Than 75% Mortality (A)) |
| CN1CCN(C2Cc3ccccc3Sc3c(F)cccc32)CC1 (centres unmarked) [Compound 94] | X (More Than 75% Mortality (A)) |

same assay, conditions: rate of application 300 ppm

| Structure (SMILES) | Mortality of Cotton Aphid On Cotton Plants: More Than 75% Mortality (A) | Mortality of Cotton Aphid On Cotton Plants: 20% to 75% Mortality (SA) |
| --- | --- | --- |
| CN1CCN(C2Cc3ccccc3Oc3ccc(F)cc32)CC1 (centres unmarked) [Compound 66] | X (More Than 75% Mortality (A)) | – |
| CN1CCN(C2Cc3ccccc3Oc3ccc(C(F)(F)F)cc32)CC1 (centres unmarked) [Compound 69] | – | X (20% to 75% Mortality (SA)) |
| CSc1ccc2c(c1)C(N1CCN(C)CC1)Cc1ccccc1O2 (centres unmarked) [Compound 70] | X (More Than 75% Mortality (A)) | – |

same assay, conditions: rate of application 1000 ppm

| Structure (SMILES) | Mortality of Cotton Aphid On Cotton Plants: More Than 75% Mortality (A) | Mortality of Cotton Aphid On Cotton Plants: 20% to 75% Mortality (SA) |
| --- | --- | --- |
| N#CN1CCN(C2Cc3ccccc3Sc3ccccc32)CC1 (racemic) [Compound 148] | X (More Than 75% Mortality (A)) | – |
| c1ccc2c(c1)Sc1ccccc1C2=C1CCNCC1 [Compound 1] | X (More Than 75% Mortality (A)) | – |
| CC(C)N1CCC(=C2c3ccccc3Sc3ccccc32)CC1 [Compound 3] | X (More Than 75% Mortality (A)) | – |
| N#CCN1CCC(=C2c3ccccc3Sc3ccccc32)CC1 [Compound 7] | – | X (20% to 75% Mortality (SA)) |
| CN1CCC(=C2c3ccccc3Oc3ccc(F)cc32)CC1 [Compound 9] | X (More Than 75% Mortality (A)) | – |
| CN1CCC(=C2c3ccccc3Oc3c(F)cccc32)CC1 [Compound 11] | X (More Than 75% Mortality (A)) | – |
| CCc1ccc2c(c1)C(=C1CCN(C)CC1)c1ccccc1O2 [Compound 12] | X (More Than 75% Mortality (A)) | – |
| CCOc1ccc2c(c1)C(=C1CCN(C)CC1)c1ccccc1O2 [Compound 13] | – | X (20% to 75% Mortality (SA)) |
| COCCc1ccc2c(c1)C(=C1CCN(C)CC1)c1ccccc1O2 [Compound 14] | – | X (20% to 75% Mortality (SA)) |
| CN1CCC(=C2c3ccccc3Oc3ccc(C(F)(F)F)cc32)CC1 [Compound 15] | X (More Than 75% Mortality (A)) | – |
| CCOC(=O)CCN1CCC(=C2c3ccccc3Oc3ccccc32)CC1 [Compound 20] | X (More Than 75% Mortality (A)) | – |
| CN1CCC(=C2c3ccccc3N(C)c3ccccc32)CC1 [Compound 24] | X (More Than 75% Mortality (A)) | – |
| CN1CCC(=C2c3ccccc3COc3ccccc32)CC1.Cl [Compound 26] | X (More Than 75% Mortality (A)) | – |
| CCN(CC)CCOC1Cc2ccccc2Sc2ccc(OC(F)(F)F)cc21 (centres unmarked) [Compound 52] | X (More Than 75% Mortality (A)) | – |
| CCOCCCNC1Cc2ccccc2Sc2ccc(SC)cc21 (centres unmarked) [Compound 53] | – | X (20% to 75% Mortality (SA)) |
| CSc1ccc2c(c1)C(N(C)CCN(C)C)Cc1ccccc1S2 (centres unmarked) [Compound 54] | X (More Than 75% Mortality (A)) | – |

| Structure (SMILES) | Mortality of Cotton Aphid On Cotton Plants: More Than 75% Mortality (A) | Mortality of Cotton Aphid On Cotton Plants: 20% to 75% Mortality (SA) |
| --- | --- | --- |
| CSc1ccc2c(c1)C(N1CCOCC1)Cc1ccccc1S2 (centres unmarked) [Compound 55] | X (More Than 75% Mortality (A)) | – |
| CSc1ccc2c(c1)C(C1CCN(C)CC1)Cc1ccccc1S2 (centres unmarked) [Compound 56] | – | X (20% to 75% Mortality (SA)) |
| CN1CCC(OC2Cc3ccccc3Sc3ccc(OC(F)(F)F)cc32)C1 (centres unmarked) [Compound 59] | X (More Than 75% Mortality (A)) | – |
| CN(C)CC#CC1(O)Cc2ccccc2Sc2ccc(OC(F)(F)F)cc21 (centres unmarked) [Compound 60] | X (More Than 75% Mortality (A)) | – |
| OC1(c2ccncc2)Cc2ccccc2Sc2ccc(OC(F)(F)F)cc21 (centres unmarked) [Compound 61, 10-(4-pyridyl)-8-(trifluoromethoxy)-11H-dibenzo[b,f]thiepan-10-ol] | X (More Than 75% Mortality (A)) | – |
| CN1CCC(=C2Cc3ccccc3Sc3ccc(OC(F)(F)F)cc32)CC1 [Compound 62] | X (More Than 75% Mortality (A)) | – |
| CN1CCN(C2Cc3ccccc3Oc3ccccc32)CC1 (centres unmarked) [Compound 63] | – | X (20% to 75% Mortality (SA)) |
| Cc1ccc2c(c1)C(N1CCN(C)CC1)Cc1ccccc1O2 (centres unmarked) [Compound 68] | X (More Than 75% Mortality (A)) | – |
| CN1CCN(C2Cc3ccccc3Oc3ccc(OC(F)(F)F)cc32)CC1 (centres unmarked) [Compound 71] | X (More Than 75% Mortality (A)) | – |
| CN1CCN(C2Cc3ccccc3Oc3ccc([S+]([O-])C(F)(F)F)cc32)CC1 (centres unmarked) [Compound 76] | X (More Than 75% Mortality (A)) | – |
| CN1CCN(C2Cc3ccccc3Oc3cc(Cl)c(F)cc32)CC1 (centres unmarked) [Compound 86] | – | X (20% to 75% Mortality (SA)) |
| CN1CCN(C2Cc3ccccc3Oc3c(Cl)cc(F)cc32)CC1 (centres unmarked) [Compound 87] | X (More Than 75% Mortality (A)) | – |
| CN1CCN(C2Cc3ccccc3Sc3ccccc32)CC1.O=C(O)/C=C\C(=O)O (centres unmarked) [Compound 90] | X (More Than 75% Mortality (A)) | – |
| CN1CCN(C2Cc3ccccc3Sc3cc(Cl)ccc32)CC1.O=C(O)/C=C\C(=O)O (centres unmarked) [Compound 91] | X (More Than 75% Mortality (A)) | – |
| CN1CCN(C2Cc3cc(Cl)ccc3Sc3cc(Cl)ccc32)CC1 (centres unmarked) [Compound 92] | – | X (20% to 75% Mortality (SA)) |
